In paper PMC6575207 one finds binding data, which are given here for two substances.

By UniProt entry, the sequences of proteins in these tests, tags left out.
UniProt P56524: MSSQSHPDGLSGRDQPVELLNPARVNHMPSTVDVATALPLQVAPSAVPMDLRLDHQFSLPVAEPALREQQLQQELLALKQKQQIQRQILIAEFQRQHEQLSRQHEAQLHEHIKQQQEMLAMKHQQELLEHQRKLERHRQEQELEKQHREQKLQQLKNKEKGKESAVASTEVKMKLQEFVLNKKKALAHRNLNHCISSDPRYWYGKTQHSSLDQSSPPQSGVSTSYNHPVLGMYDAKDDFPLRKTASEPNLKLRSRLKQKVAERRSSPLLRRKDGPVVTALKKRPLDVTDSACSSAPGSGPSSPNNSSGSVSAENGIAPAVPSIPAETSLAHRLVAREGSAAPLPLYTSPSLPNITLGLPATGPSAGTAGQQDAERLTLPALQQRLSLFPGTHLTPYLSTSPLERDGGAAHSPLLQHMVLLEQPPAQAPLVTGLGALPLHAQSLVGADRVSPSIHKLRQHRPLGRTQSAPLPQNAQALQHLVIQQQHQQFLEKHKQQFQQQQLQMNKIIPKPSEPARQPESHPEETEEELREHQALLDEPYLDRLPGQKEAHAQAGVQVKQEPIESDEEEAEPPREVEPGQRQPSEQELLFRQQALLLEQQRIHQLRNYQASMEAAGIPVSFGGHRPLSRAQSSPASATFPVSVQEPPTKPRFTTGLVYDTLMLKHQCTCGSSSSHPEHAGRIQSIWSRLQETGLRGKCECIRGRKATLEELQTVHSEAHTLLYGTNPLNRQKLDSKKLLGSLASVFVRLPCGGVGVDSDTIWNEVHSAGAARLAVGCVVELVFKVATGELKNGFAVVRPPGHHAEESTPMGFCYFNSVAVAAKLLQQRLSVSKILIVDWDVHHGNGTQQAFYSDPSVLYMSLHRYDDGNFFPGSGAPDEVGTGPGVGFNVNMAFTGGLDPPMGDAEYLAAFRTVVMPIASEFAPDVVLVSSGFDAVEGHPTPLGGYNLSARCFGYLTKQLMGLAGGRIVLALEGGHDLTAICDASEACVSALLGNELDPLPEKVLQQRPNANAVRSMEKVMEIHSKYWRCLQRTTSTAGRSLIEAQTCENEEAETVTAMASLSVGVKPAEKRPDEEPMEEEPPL
UniProt Q00978: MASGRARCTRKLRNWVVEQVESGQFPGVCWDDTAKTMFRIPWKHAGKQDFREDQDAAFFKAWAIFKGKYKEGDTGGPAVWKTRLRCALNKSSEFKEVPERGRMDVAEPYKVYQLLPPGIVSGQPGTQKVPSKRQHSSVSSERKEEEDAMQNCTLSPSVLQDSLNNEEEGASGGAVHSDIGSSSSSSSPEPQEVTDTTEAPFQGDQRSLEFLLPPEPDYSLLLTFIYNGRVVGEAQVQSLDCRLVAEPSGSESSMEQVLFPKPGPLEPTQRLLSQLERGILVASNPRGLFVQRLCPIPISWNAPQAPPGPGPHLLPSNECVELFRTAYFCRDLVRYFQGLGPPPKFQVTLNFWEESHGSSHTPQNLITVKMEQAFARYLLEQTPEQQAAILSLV
UniProt P52630: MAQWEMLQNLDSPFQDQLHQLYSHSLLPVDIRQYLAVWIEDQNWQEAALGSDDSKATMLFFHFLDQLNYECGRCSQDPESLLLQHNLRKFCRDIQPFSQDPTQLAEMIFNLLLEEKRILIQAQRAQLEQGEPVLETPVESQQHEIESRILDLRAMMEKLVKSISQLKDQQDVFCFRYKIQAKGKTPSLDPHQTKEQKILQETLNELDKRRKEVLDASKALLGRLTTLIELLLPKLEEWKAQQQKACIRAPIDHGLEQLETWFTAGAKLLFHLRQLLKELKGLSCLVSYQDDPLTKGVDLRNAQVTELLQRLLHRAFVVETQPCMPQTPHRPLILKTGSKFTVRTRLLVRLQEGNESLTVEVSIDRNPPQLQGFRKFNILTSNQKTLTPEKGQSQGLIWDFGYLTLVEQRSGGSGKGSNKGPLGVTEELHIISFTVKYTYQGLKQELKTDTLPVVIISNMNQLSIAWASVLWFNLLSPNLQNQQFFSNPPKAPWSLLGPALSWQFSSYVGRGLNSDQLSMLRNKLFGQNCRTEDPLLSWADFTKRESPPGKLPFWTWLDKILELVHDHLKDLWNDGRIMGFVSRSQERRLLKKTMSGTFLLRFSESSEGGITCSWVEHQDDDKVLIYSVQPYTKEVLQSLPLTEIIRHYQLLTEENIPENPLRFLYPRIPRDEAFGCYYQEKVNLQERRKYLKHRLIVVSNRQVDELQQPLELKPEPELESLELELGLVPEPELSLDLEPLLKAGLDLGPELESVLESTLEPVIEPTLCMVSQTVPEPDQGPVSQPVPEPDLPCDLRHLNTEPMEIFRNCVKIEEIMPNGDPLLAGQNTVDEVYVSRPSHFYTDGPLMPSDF
UniProt Q13547: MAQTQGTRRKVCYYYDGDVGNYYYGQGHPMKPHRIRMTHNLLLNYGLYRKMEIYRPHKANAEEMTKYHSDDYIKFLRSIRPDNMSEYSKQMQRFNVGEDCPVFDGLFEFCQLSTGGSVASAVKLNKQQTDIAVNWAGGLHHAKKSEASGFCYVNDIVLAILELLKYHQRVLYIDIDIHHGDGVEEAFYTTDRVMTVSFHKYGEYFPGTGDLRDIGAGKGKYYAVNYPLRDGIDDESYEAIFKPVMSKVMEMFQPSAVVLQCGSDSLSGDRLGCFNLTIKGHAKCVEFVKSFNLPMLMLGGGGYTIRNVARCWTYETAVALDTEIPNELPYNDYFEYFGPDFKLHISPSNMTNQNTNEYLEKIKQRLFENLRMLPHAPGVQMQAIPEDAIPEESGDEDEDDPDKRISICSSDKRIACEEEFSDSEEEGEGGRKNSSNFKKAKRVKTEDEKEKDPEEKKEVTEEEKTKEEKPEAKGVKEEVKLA

No constants are given. Whether binding was seen depends on the method and setting. Binding seen in cells or lysates may run through a third protein. Some results given as binding are weak or reduced against the parent protein; the word gives no strength.

Assay [1] has as its target endogenous HDAC4 (human (endogenous in HEK-293T)) (UniProt P56524). Briefly: co-IP; endogenous levels; lysate of 1 x 10^7 HEK-293T cells incubated with mouse anti-HDAC4 or mouse IgG for 2 h, then Protein G Sepharose overnight; immunoblot for STAT2 and MEF2 (Fig. 5B). Background: Immunoblotting shows a protein as a band on a membrane.
The target of another assay is TAP-tagged IRF9 (UniProt Q00978). Briefly: co-IP; HEK-293T cotransfected with TAP-tagged IRF9 and HA-tagged STAT1 or STAT2 or FLAG-tagged HDAC1 or HDAC4, 24 h; lysates precipitated via the streptavidin-epitope; immunoblot (Fig. 5D).

On to “endogenous STAT2 (signal transducer and activator of transcription 2) (from UniProt P52630 1-851)”, for which, in assay [1], the binding result is listed as “binds”.

With “FLAG-tagged HDAC1 (histone deacetylase 1) (from UniProt Q13547 1-482)”, the binding result with TAP-tagged IRF9 is given as “binds”.
